The list shows a part of the results. Further columns of the screen follow, without active or inactive calls. Most of these compounds were active or inconclusive in the main read-out, so they are no random draw. Words in brackets tell the shape of the fitted curve; partial curves, single points and poor fits give uncertain potencies.

This is an account of results in PubChem BioAssay AID2685 (National Center for Advancing Translational Sciences (NCATS), 2010).

The nature of the assay: qHTS Assay for Lipid Storage Modulators in Drosophila S3 Cells.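 On cell number change: cells counted by Cell Tracker Red CMTPX staining in the red channel.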 The settings on record: BODIPY lipid droplet fluorescence, 18-24 h; for cell number change: measured here: cell count max response, cells fed with added oleic acid. A digest of the protocol:
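Drosophila S3 cells loaded with oleic acid (400 uM, as added) and compounds at several concentrations; lipid droplets imaged by 488-nm laser-scanning cytometry, 500–530 nm intensity and object ratio to cell channel. Percent activity normalized to 20 uM Triacsin C.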
(In general: Quantitative high-throughput screening tests each substance at several concentrations.)

Setting [1] is: measured here: lipid fluorescence (Fed channel) AC50, cells fed with added oleic acid.
Setting [2] is: measured here: cell number channel AC50, cells fed with added oleic acid.

For the molecule `Nc1ccccc1C(=O)OCc1ccc([N+](=O)[O-])cc1`, the cell number change is -3.5%.
Turning to `S=P(NC1CCCCC1)(N1CC1)N1CC1`, the cell number change is -5.52%. For the same molecule, the AC50 (commonly the concentration giving half of the maximal activity seen) under setting [1] was 0.411 µM [falling, full curve].
Consider `NC(N)=Nc1ccc2[nH]c3c(c2c1)C[C@@]1(O)[C@H]2Cc4ccc(O)c5c4[C@@]1(CCN2CC1CC1)[C@H]3O5`, for which the cell number change is -25.3%. Besides, the AC50 under setting [2] is 0.184 µM [falling, full curve, poor fit]. The AC50 under setting [1] is 0.411 µM [falling, full curve].
As to `O=C(O)C1CN2CCC1CC2` (stereo not given), the cell number change is -1.81%. In addition, under setting [1], the AC50 was 6.51 µM [rising, single point].
As to `CCOP(=O)(OCC)c1ccc(OP(=O)(c2cccc([N+](=O)[O-])c2)c2cccc([N+](=O)[O-])c2)cc1`, the cell number change was found to be 5.38%. Further, under setting [1], the AC50 is 0.461 µM [falling, full curve].
`C[C@]12CCC(=O)C[C@H]1CC[C@@H]1[C@@H]2CC[C@]2(C)[C@@H](O)CC[C@@H]12`: the cell number change was -20.6%. Under setting [1], the AC50 is 0.231 µM [falling, full curve, poor fit].
`CN1CCN2c3ccc(N)cc3CC3(C(=O)NC(=O)NC3=O)C2C1` (stereo not given): the cell number change came out at 4.35%. Further, the AC50 under setting [1] was 3.26 µM [falling, single point].
`CCOP(=O)(c1ccc(N(C)C)cc1)C(O)c1c(Cl)cccc1Cl` (stereo not given): under setting [2], the AC50 is 18.4 µM [falling, single point].
For `Cc1nn(Cc2ccccc2Cl)c(Cl)c1C(=O)OCC(=O)NCc1ccco1`, the AC50 is, setting by setting: under setting [2], 0.231 µM [rising, full curve, poor fit]; under setting [1], 0.13 µM [rising, full curve, poor fit].
For `CCn1cc(C=C2C(=O)NC(=O)NC2=O)c2ccccc21`, the cell number change was -7.8%. Moreover, the AC50 under setting [1] was 18.4 µM [falling, single point].
In the case of `NNC(=O)CN1C(=O)CN=C(c2ccccc2)c2cc(Br)ccc21`, the cell number change amounted to 8.65%. Moreover, under setting [1], the AC50 is 18.4 µM [rising, single point].
For `Cc1ccccc1-c1nc(CS(=O)CC(=O)N2CCC3(CC2)OCCO3)c(C)o1` (stereo not given), the cell number change was -61.1%. Besides, the AC50 under setting [2] was 32.6 µM [falling, partial curve, poor fit].
Consider `Cc1ccc(-c2nc3ccccc3c(=O)n2-c2ncccc2C)cc1`, for which the cell number change is -16.4%. Also, the AC50 under setting [1] was 32.6 µM [falling, single point].
In the case of `COc1ccc(-n2c(=O)[nH]c3ccccc3c2=O)cc1`, the cell number change was found to be 34.9%. In addition, the AC50 under setting [2] is 4.61 µM [rising, full curve, poor fit]. For the same molecule, under setting [1], the AC50 is 7.31 µM [rising, partial curve].
Turning to `CC(=O)O[C@@]12CO[C@@H]1C[C@H](O)[C@@]1(C)C(=O)[C@H](O)C3=C(C)[C@@H](OC(=O)[C@H](O)[C@@H](NC(=O)c4ccccc4)c4ccccc4)C[C@@](O)([C@@H](OC(=O)c4ccccc4)C12)C3(C)C` (stereo not given in full), the cell number change came out at 0.581%. Further, the AC50 under setting [1] was 0.146 µM [falling, full curve].
